# Test results published in the supplement of paper PMC4604168 (melanoma cell lines).
# The other results are listed elsewhere or left out. Repeats are few or missing, and single values can be far off.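 Imaging used 1,536-well plates; nuclei positive for cleaved PARP by antibody were divided by total DNA-stained nuclei to yield the apoptosis fraction. Doses for screening kept most cells viable, and cell lines differ markedly in resting and induced cleaved-PARP levels.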
# Tested on: MZ2-MEL
# Assay: cleaved PARP positive nuclei fraction relative to DMSO control; melanoma cells; higher = more apoptosis
# Conditions: library dose: low library concentration; 72 h
row,Structure (SMILES),cleaved PARP positive nuclei fraction [%]
1,"O=C(O)c1ccc2c(c1)nc(Nc1cccc(Cl)c1)c1ccncc12 + NCC(=O)Nc1ccc(-n2nc(C(F)(F)F)cc2-c2ccc3c(ccc4ccccc43)c2)cc1 [OSU03012] (first compound 0.4 µM, partner dose 1 µM)",53.6
2,"Nc1ncn([C@H]2C[C@H](O)[C@@H](CO)O2)c(=O)n1 [decitabine] + Cn1cc(/C=C2\C(=O)Nc3cccnc32)c2ccccc21 [GW441756] (first compound 0.1 µM, partner dose 0.4 µM)",146
3,"CNC(=O)c1cc(Oc2ccc(NC(=O)Nc3ccc(Cl)c(C(F)(F)F)c3)cc2)ccn1 [sorafenib] + Oc1nc(-c2ccc(C(F)(F)F)cc2)nc2c1CSCC2 [XAV939] (first compound 0.4 µM, partner dose 2 µM)",101
4,"O=C(O)[C@@H]1[O][Sb](=[O])([O][Sb]2(=[O])[O][C@H]([C@H](O)CO)[C@H](O)[C@H](C(=O)O)[O]2)[O][C@H]([C@H](O)CO)[C@@H]1O (stereo not given in full) [stibogluconate] + C=CCn1c(=O)c2cnc(Nc3ccc(N4CCN(C)CC4)cc3)nc2n1-c1cccc(C(C)(C)O)n1 [MK1775] (first compound 2 µM, partner dose 0.02 µM)",49.6
5,"CC(C)C[C@H](NC(=O)[C@H](Cc1ccccc1)NC(=O)c1cnccn1)B(O)O [Bortezomib] + O=c1cc(-c2cccc3c2Sc2ccccc2S3)oc(N2CCOCC2)c1 [KU55933] (first compound 0.001 µM, partner dose 1 µM)",217
6,"Cn1c(=O)n(-c2ccc(C(C)(C)C#N)cc2)c2c3cc(-c4cnc5ccccc5c4)ccc3ncc21 + OCCn1cc(-c2cnc3nnn(Cc4ccc5ncccc5c4)c3n2)cn1 [PF04217903] (first compound 0.004 µM, partner dose 1 µM)",240
7,"Cn1c(=O)n(-c2ccc(C(C)(C)C#N)cc2)c2c3cc(-c4cnc5ccccc5c4)ccc3ncc21 + c1cc(-c2cnn3cc(-c4ccc(OCCN5CCCCC5)cc4)cnc23)ccn1 [Dorsomorphin] (first compound 0.004 µM, partner dose 0.4 µM)",127
8,"O=C(O)c1ccc2c(c1)nc(Nc1cccc(Cl)c1)c1ccncc12 + COc1ccc(-c2ccc3c(N4CCOCC4)nc(N4C[C@@H](C)O[C@@H](C)C4)nc3n2)cc1CO [KU0063794] (first compound 0.4 µM, partner dose 0.02 µM)",113

# Tested on: MeWo
# Assay: as above
# Conditions: library dose: low library concentration; 72 h
row,Structure (SMILES),cleaved PARP positive nuclei fraction [%]
1,"O=C(O)[C@@H]1[O][Sb](=[O])([O][Sb]2(=[O])[O][C@H]([C@H](O)CO)[C@H](O)[C@H](C(=O)O)[O]2)[O][C@H]([C@H](O)CO)[C@@H]1O (stereo not given in full) [stibogluconate] + OCCn1cc(-c2cnc3nnn(Cc4ccc5ncccc5c4)c3n2)cn1 [PF04217903] (first compound 2 µM, partner dose 1 µM)",40.3
2,"C[C@@H](Oc1cc(-c2cnn(C3CCNCC3)c2)cnc1N)c1c(Cl)ccc(F)c1Cl [Crizotinib] + Oc1cc(-c2nc(-c3ccccc3)[nH]c2-c2ccncc2)ccc1Cl [L779450] (first compound 0.2 µM, partner dose 0.2 µM)",162
3,"C[C@@H](Oc1cc(-c2cnn(C3CCNCC3)c2)cnc1N)c1c(Cl)ccc(F)c1Cl [Crizotinib] + CCCCCCCCCCCC1=C(O)C(=O)C=C(O)C1=O [Embelin] (first compound 0.2 µM, partner dose 1.2 µM)",82.6
4,"Nc1ncn([C@H]2C[C@H](O)[C@@H](CO)O2)c(=O)n1 [decitabine] + O=C(Nc1ccccc1)c1cc([N+](=O)[O-])ccc1Cl [GW9662] (first compound 0.1 µM, partner dose 2 µM)",212
5,"C[C@@H](Oc1cc(-c2cnn(C3CCNCC3)c2)cnc1N)c1c(Cl)ccc(F)c1Cl [Crizotinib] + O=c1cc(-c2cccc3c2Sc2ccccc2S3)oc(N2CCOCC2)c1 [KU55933] (first compound 0.2 µM, partner dose 1 µM)",30.3
6,"CS(=O)(=O)CCNCc1ccc(-c2ccc3ncnc(Nc4ccc(OCc5cccc(F)c5)c(Cl)c4)c3c2)o1 [lapatinib] + OCCn1cc(-c2cnc3nnn(Cc4ccc5ncccc5c4)c3n2)cn1 [PF04217903] (first compound 0.8 µM, partner dose 1 µM)",299
7,"Cc1cc(Nc2cc(N3CCN(C)CC3)nc(/C=C/c3ccccc3)n2)n[nH]1 + N#Cc1c(O)c2c(-c3ccc(-c4ccccc4O)cc3)csc2[nH]c1=O [A769662] (first compound 0.04 µM, partner dose 2 µM)",83.2
8,"CCCS(=O)(=O)Nc1ccc(F)c(C(=O)c2c[nH]c3ncc(Cl)cc23)c1F + COc1cc2ncnc(Nc3ccc(Oc4ccccc4)cc3)c2cc1OC [SrcI1] (first compound 0.08 µM, partner dose 2 µM)",94.8
9,"Nc1nc(F)nc2c1ncn2[C@@H]1O[C@H](CO)[C@@H](O)[C@@H]1O [fludarabine] + CO[C@@H]1[C@H](N(C)C(=O)c2ccccc2)C[C@H]2O[C@]1(C)n1c3ccccc3c3c4c(c5c6ccccc6n2c5c31)C(=O)NC4 [Midostaurin] (first compound 0.2 µM, partner dose 0.08 µM)",816
10,"Nc1ncn([C@H]2C[C@H](O)[C@@H](CO)O2)c(=O)n1 [decitabine] + O=C(O)c1ccc(-c2c[nH]c3ncc(-c4ccccc4)cc23)cc1C1CCCC1 [GSK650394] (first compound 0.1 µM, partner dose 0.16 µM)",103
11,"CN1CCN(c2ccc3nc(-c4c(N)c5c(F)cccc5[nH]c4=O)[nH]c3c2)CC1 [Dovitinib] + Oc1cc(-c2nc(-c3ccccc3)[nH]c2-c2ccncc2)ccc1Cl [L779450] (first compound 0.1 µM, partner dose 0.2 µM)",31.6
12,"CS(=O)(=O)CCNCc1ccc(-c2ccc3ncnc(Nc4ccc(OCc5cccc(F)c5)c(Cl)c4)c3c2)o1 [lapatinib] + O=S(=O)(c1ccccc1)N(CC(F)(F)F)c1ccc(C(O)(C(F)(F)F)C(F)(F)F)cc1 [T0901317] (first compound 0.8 µM, partner dose 1.4 µM)",69.3
13,"CNC(=O)c1cc(Oc2ccc(NC(=O)Nc3ccc(Cl)c(C(F)(F)F)c3)cc2)ccn1 [sorafenib] + O=C(O)c1ccc(-c2c[nH]c3ncc(-c4ccccc4)cc23)cc1C1CCCC1 [GSK650394] (first compound 0.4 µM, partner dose 0.16 µM)",107
14,"CC(C)C[C@H](NC(=O)[C@H](Cc1ccccc1)NC(=O)c1cnccn1)B(O)O [Bortezomib] + NC(=O)Nc1cc(-c2cccc(F)c2)sc1C(=O)N[C@H]1CCCNC1 [AZD7762] (first compound 0.001 µM, partner dose 0.02 µM)",119
15,"Nc1nc(F)nc2c1ncn2[C@@H]1O[C@H](CO)[C@@H](O)[C@@H]1O [fludarabine] + NCC(=O)Nc1ccc(-n2nc(C(F)(F)F)cc2-c2ccc3c(ccc4ccccc43)c2)cc1 [OSU03012] (first compound 0.2 µM, partner dose 1 µM)",570
16,"CC(C)C[C@H](NC(=O)[C@H](Cc1ccccc1)NC(=O)c1cnccn1)B(O)O [Bortezomib] + COc1cc2c(Oc3ccc4[nH]c(C)cc4c3F)ncnc2cc1OCCCN1CCCC1 [cediranib] (first compound 0.001 µM, partner dose 0.4 µM)",72
17,"CC(C)C[C@H](NC(=O)[C@H](Cc1ccccc1)NC(=O)c1cnccn1)B(O)O [Bortezomib] + C[C@@H]1CCN(C(=O)CC#N)C[C@@H]1N(C)c1ncnc2[nH]ccc12 [CP690550] (first compound 0.001 µM, partner dose 1 µM)",26.4
18,"Nc1ccn([C@@H]2O[C@H](CO)[C@@H](O)C2(F)F)c(=O)n1 [gemcitabine] + C=CCn1c(=O)c2cnc(Nc3ccc(N4CCN(C)CC4)cc3)nc2n1-c1cccc(C(C)(C)O)n1 [MK1775] (first compound 0.0004 µM, partner dose 0.02 µM)",106
19,"CNC(=O)c1cc(Oc2ccc(NC(=O)Nc3ccc(Cl)c(C(F)(F)F)c3)cc2)ccn1 [sorafenib] + COc1cc2c(Oc3ccc4[nH]c(C)cc4c3F)ncnc2cc1OCCCN1CCCC1 [cediranib] (first compound 0.4 µM, partner dose 0.4 µM)",130
20,"CNC(=O)c1cc(Oc2ccc(NC(=O)Nc3ccc(Cl)c(C(F)(F)F)c3)cc2)ccn1 [sorafenib] + Cc1ccc(NC(=O)c2cccc(N(C)C)c2)cc1NC(=O)c1ccc(O)cc1 [ZM336372] (first compound 0.4 µM, partner dose 2 µM)",121
21,"C[C@@H](Oc1cc(-c2cnn(C3CCNCC3)c2)cnc1N)c1c(Cl)ccc(F)c1Cl [Crizotinib] + CCN(CC)CCCCNc1ncc2cc(-c3cc(OC)cc(OC)c3)c(NC(=O)NC(C)(C)C)nc2n1 [PD173074] (first compound 0.2 µM, partner dose 0.1 µM)",163
22,"Nc1ncn([C@H]2C[C@H](O)[C@@H](CO)O2)c(=O)n1 [decitabine] + O=c1cc(-c2cccc3c2Sc2ccccc2S3)oc(N2CCOCC2)c1 [KU55933] (first compound 0.1 µM, partner dose 1 µM)",39.6

# Exported bar-delimited: entries from further up
row | Structure (SMILES) | cleaved PARP positive nuclei fraction [%]
15 | Nc1nc(F)nc2c1ncn2[C@@H]1O[C@H](CO)[C@@H](O)[C@@H]1O [fludarabine] + NCC(=O)Nc1ccc(-n2nc(C(F)(F)F)cc2-c2ccc3c(ccc4ccccc43)c2)cc1 [OSU03012] (first compound 0.2 µM, partner dose 1 µM) | 570
21 | C[C@@H](Oc1cc(-c2cnn(C3CCNCC3)c2)cnc1N)c1c(Cl)ccc(F)c1Cl [Crizotinib] + CCN(CC)CCCCNc1ncc2cc(-c3cc(OC)cc(OC)c3)c(NC(=O)NC(C)(C)C)nc2n1 [PD173074] (first compound 0.2 µM, partner dose 0.1 µM) | 163
